Record: PubChem BioAssay AID1259254 (NCATS, 2017)
Purpose: 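Gene knock-downs that lead to re-replication, shown by excess G2 DNA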 (primary screen). Cells: human HCT116 colorectal cancer cells. Reagents: single siRNA against human genes. Duration: 3 days. Read-out: 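Nuclei stained with Hoechst and imaged; cell-cycle phase assigned by DNA content; G2 share scaled per plate, non-targeting siRNA 0%, GMNN siRNA 100%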. Scale: G2 robust z-score and G2 cells, % of GMNN control: higher = more G2 cells, more excess DNA replication; raw share of cells in G2: higher = larger share of cells with G2 DNA content. Active means: 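Active siRNAs have a G2 robust z of 5 or more median absolute deviations over the median, which in these data means about 38% or higher of GMNN control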.
Shown is one part, drawn at random, of about 59,000 reagents. About 1,550 of all reagents (2.6%) were called active. 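G2 share is only a proxy for re-replication; each gene was hit by three separate siRNAs, and active genes were retested.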 Raw values are not corrected between plates. The numbers tell different reagents against one gene apart. The record does not give: the amount of reagent.

| Gene | reagent | G2 robust z-score | G2 cells, % of GMNN control | raw share of cells in G2 (%) | Call |
| --- | --- | --- | --- | --- | --- |
| BBS10 | 1 | 0.678 | 7.74 | 5.52 | inactive |
| BBS10 | 2 | 4.16 | 32.2 | 20.5 | inactive |
| BBS10 | 3 | 0.749 | 8.24 | 6.22 | inactive |
| CYB561A3 | 1 | 0.41 | 5.85 | 5.7 | inactive |
| CYB561A3 | 2 | 2.59 | 21.2 | 10.4 | inactive |
| CYB561A3 | 3 | -0.173 | 1.75 | 3.75 | inactive |
| DSC2 | 1 | -0.831 | -2.88 | 3.1 | inactive |
| DSC2 | 2 | 1.13 | 10.9 | 8.85 | inactive |
| DSC2 | 3 | 1.65 | 14.6 | 10.3 | inactive |
| PCTP | 1 | 1.19 | 11.3 | 10.3 | inactive |
| PCTP | 2 | -0.429 | -0.0514 | 4.21 | inactive |
| PCTP | 3 | 2.9 | 23.4 | 12.6 | inactive |
| UHRF1 | 1 | -0.608 | -1.31 | 2.33 | inactive |
| UHRF1 | 2 | -1.11 | -4.83 | 3.73 | inactive |
| UHRF1 | 3 | -0.528 | -0.751 | 3.4 | inactive |
| TM9SF4 | 1 | -0.0782 | 2.42 | 4.02 | inactive |
| TM9SF4 | 2 | 2.32 | 19.3 | 12.5 | inactive |
| TM9SF4 | 3 | 2.14 | 18 | 12.1 | inactive |
| MGAT4B | 1 | -0.157 | 1.86 | 7.12 | inactive |
| MGAT4B | 2 | -0.333 | 0.622 | 4.36 | inactive |
| MGAT4B | 3 | -0.645 | -1.57 | 3.33 | inactive |
| ZNF740 | 1 | -1.04 | -4.37 | 4.01 | inactive |
| ZNF740 | 2 | -1.05 | -4.4 | 2.68 | inactive |
| ZNF740 | 3 | -0.0511 | 2.61 | 5.98 | inactive |
| CXXC4 | 1 | -0.0257 | 2.79 | 3.14 | inactive |
| CXXC4 | 2 | -0.245 | 1.25 | 4.96 | inactive |
| CXXC4 | 3 | -0.388 | 0.239 | 4.41 | inactive |
| SBF1 | 1 | 0.198 | 4.36 | 6.21 | inactive |
| SBF1 | 2 | -1.08 | -4.66 | 2.9 | inactive |
| SBF1 | 3 | -0.0231 | 2.81 | 4.34 | inactive |
| PABPN1 | 1 | 1.11 | 10.8 | 10.2 | inactive |
| PABPN1 | 2 | -0.243 | 1.25 | 4.89 | inactive |
| PABPN1 | 3 | -0.0649 | 2.51 | 5.2 | inactive |
| SLC22A12 | 1 | 1.65 | 14.6 | 12.4 | inactive |
| SLC22A12 | 2 | 4.6 | 35.3 | 20.1 | inactive |
| SLC22A12 | 3 | -0.0949 | 2.3 | 5.35 | inactive |
| OSGIN2 | 1 | 0.841 | 8.89 | 9.47 | inactive |
| OSGIN2 | 2 | 0.498 | 6.47 | 6.46 | inactive |
| OSGIN2 | 3 | 2.36 | 19.6 | 11.2 | inactive |
| SCRN2 | 1 | 2.87 | 23.2 | 10.3 | inactive |
| SCRN2 | 2 | -0.165 | 1.81 | 3.5 | inactive |
| SCRN2 | 3 | -0.633 | -1.48 | 3.45 | inactive |
| ANKRD24 | 1 | 1.55 | 13.9 | 8.57 | inactive |
| ANKRD24 | 2 | 2.57 | 21.1 | 10 | inactive |
| ANKRD24 | 3 | -0.115 | 2.16 | 3.44 | inactive |

The list goes on; the last 12 above are carried over.
| Gene | reagent | G2 robust z-score | G2 cells, % of GMNN control | raw share of cells in G2 (%) | Call |
| --- | --- | --- | --- | --- | --- |
| SLC22A12 | 1 | 1.65 | 14.6 | 12.4 | inactive |
| SLC22A12 | 2 | 4.6 | 35.3 | 20.1 | inactive |
| SLC22A12 | 3 | -0.0949 | 2.3 | 5.35 | inactive |
| OSGIN2 | 1 | 0.841 | 8.89 | 9.47 | inactive |
| OSGIN2 | 2 | 0.498 | 6.47 | 6.46 | inactive |
| OSGIN2 | 3 | 2.36 | 19.6 | 11.2 | inactive |
| SCRN2 | 1 | 2.87 | 23.2 | 10.3 | inactive |
| SCRN2 | 2 | -0.165 | 1.81 | 3.5 | inactive |
| SCRN2 | 3 | -0.633 | -1.48 | 3.45 | inactive |
| ANKRD24 | 1 | 1.55 | 13.9 | 8.57 | inactive |
| ANKRD24 | 2 | 2.57 | 21.1 | 10 | inactive |
| ANKRD24 | 3 | -0.115 | 2.16 | 3.44 | inactive |
| ITIH5 | 1 | 1.83 | 15.8 | 9.93 | inactive |
| ITIH5 | 2 | 0.661 | 7.62 | 8.6 | inactive |
| ITIH5 | 3 | -1.04 | -4.38 | 3.17 | inactive |
| PRMT2 | 1 | -0.148 | 1.92 | 4.91 | inactive |
| PRMT2 | 2 | -0.309 | 0.79 | 5.98 | inactive |
| PRMT2 | 3 | -0.637 | -1.52 | 4.49 | inactive |
| UQCRQ | 1 | 3.13 | 25 | 17.5 | inactive |
| UQCRQ | 2 | -0.836 | -2.92 | 3.04 | inactive |
| UQCRQ | 3 | -0.4 | 0.156 | 4.24 | inactive |
| PPP2R2C | 1 | -0.135 | 2.01 | 5.45 | inactive |
| PPP2R2C | 2 | 0.735 | 8.14 | 6.76 | inactive |
| PPP2R2C | 3 | 0.0713 | 3.47 | 4.54 | inactive |
| C15orf40 | 1 | -0.456 | -0.239 | 1.75 | inactive |
| C15orf40 | 2 | 0.011 | 3.05 | 5.31 | inactive |
| C15orf40 | 3 | 7.77 | 57.6 | 20.5 | active |
| AGBL2 | 1 | 3.76 | 29.4 | 14.8 | inactive |
| AGBL2 | 2 | 3.2 | 25.5 | 14.2 | inactive |
| AGBL2 | 3 | 1.04 | 10.3 | 9.71 | inactive |
| BTN2A1 | 1 | -0.167 | 1.8 | 7.09 | inactive |
| BTN2A1 | 2 | 0.0189 | 3.1 | 4.93 | inactive |
| BTN2A1 | 3 | 2.05 | 17.4 | 9.98 | inactive |
| HP | 1 | -1.09 | -4.67 | 3.93 | inactive |
| HP | 2 | 0.324 | 5.24 | 6.76 | inactive |
| HP | 3 | -0.0364 | 2.71 | 4.92 | inactive |
| COXFA4 | 1 | -0.591 | -1.19 | 2.8 | inactive |
| COXFA4 | 2 | 1.63 | 14.5 | 11.2 | inactive |
| COXFA4 | 3 | 1.74 | 15.2 | 11.2 | inactive |
| SPANXN2 | 1 | -0.589 | -1.18 | 2.72 | inactive |
| SPANXN2 | 2 | 0.167 | 4.14 | 5.22 | inactive |
| SPANXN2 | 3 | 2.24 | 18.7 | 10.5 | inactive |
| MAP3K2 | 1 | 3.03 | 24.3 | 13.1 | inactive |
| MAP3K2 | 2 | 0.37 | 5.57 | 7.22 | inactive |
| MAP3K2 | 3 | -1 | -4.07 | 2.38 | inactive |
| MRPL9 | 1 | 1.52 | 13.7 | 10.5 | inactive |
| MRPL9 | 2 | 1.31 | 12.2 | 10.1 | inactive |
| MRPL9 | 3 | -1.13 | -4.97 | 1.39 | inactive |
| PTPA | 1 | 0.38 | 5.64 | 6.63 | inactive |
| PTPA | 2 | -0.404 | 0.127 | 4.34 | inactive |
| PTPA | 3 | -0.576 | -1.08 | 3.17 | inactive |
| DNAH14 | 1 | -0.523 | -0.714 | 3.91 | inactive |
| DNAH14 | 2 | -1 | -4.08 | 1.81 | inactive |
| DNAH14 | 3 | -0.542 | -0.843 | 2.27 | inactive |
| DNAH14 | 4 | -1.18 | -5.36 | 1.68 | inactive |
| DNAH14 | 5 | -0.779 | -2.51 | 2.12 | inactive |
| DNAH14 | 6 | 1.53 | 13.8 | 7.11 | inactive |
